Assay results from PubChem BioAssay AID1347170 (National Center for Advancing Translational Sciences (NCATS), 2019).
This list was built around the results that the source calls inconclusive (neither active nor inactive); the mix of calls is not that of the screen. Potencies of inconclusive entries are doubtful fits and often do not repeat. The source made the active and inactive calls. The call rests on the fitted dose curve; in most records, active means well fitted cell-killing curve with a large enough effect; inconclusive means small, poorly fitted or top-dose-only effect, or another doubt; inactive means flat fitted curve, though single readings scatter.

Test: Vero cells viability counterscreen for qRT-PCR qHTS assay of selected Zika virus inhibitors
Details: CellTiter-Glo ATP luminescence, 24 h; activity change, negative = cytotoxicity: at 41.8 µM (top of the series) unless noted
Source text: Assay Submitters (PI): Avindra Nath, Ph.D., National Institute of Neurological Disorders and Stroke (NINDS), Bethesda, MD Radhakrishnan Padmanabhan, Ph.D., Georgetown University (GU), Washington D.C. Zika Virus causes congenital defects, including microcephaly and is associated with Guillain-Barre syndrome, eningoencephalitis and myelitis in infected adult. […] Using a target-based approach, we hope to establish a screening paradigm to uncover novel, cell-active NS2B-NS3 protease (Zika Virus) specific inhibitors from NCATS' collection of small molecules using qHTS. […] Four assay panel was created to identify potential Zika Virus inhibitors. Namely, (1) GU unlinked NS2B-NS3 AMC tagged protease qHTS, (2) GU unlinked NS2B-NS3 Rhodamine tagged protease qHTS, (3) NINDS linked NS2B-NS3 AMC tagged protease qHTS, (4) NINDS linked NS2B-NS3 Rhodamine tagged protease qHTS. Inhibitors of the Zika virus primary screens are confirmed using qRT-PCR secondary assays, mCherry orthogonal assay, and Vero cells viability counterscreen. Cytotoxic compounds identified in the Vero cell viability counterscreen were excluded from the list of potential Zika virus inhibitors. Early Translation Branch (ETB) National Center for Advancing Translational Sciences (NCATS), Rockville, MD National Institute of Health (NIH), Bethesda, Maryland
Vero Cell Viability Assay: Vero cell cytotoxicity was determined using a luminescent readout with CellTiter Glo reagent (Promega, Madison, WI), which is based on measuring the ATP content within cells. Briefly, 4 uL of Vero cells at 2.5 x 10^5 cells/mL in DMEM containing 4% FBS were dispensed into 1536-well solid bottom tissue treated white plate using a Multidrop Combi dispenser (Thermo Scientific). Plates were incubated at 37 degrees C, 95% humidity, and 5% CO2 overnight to allow for cell attachment. Compounds were dissolved in DMSO at different concentrations and transferred via pintool (Wako Automation), for a final concentration of 57 uM - 0.029 uM. Plates were again incubated for 24 hours, followed by a 2 uL addition of CellTiter Glo. Finally, plates were incubated for 30 minutes at 37 degrees C and 5% CO2 before being read on a ViewLux (Perkin Elmer) for luminescence.

Row | Compound | Potency | activity change, negative = cytotoxicity
1 | CCCCCCCC/C=C\CCCCCCCC(=O)NCCc1ccc(O)c(O)c1 | inconclusive: 14.1 µM [cytotoxic, partial curve] | 
2 | CC(C)(Sc1ccc(CCN(CCCCC2CCCCC2)C(=O)NC2CCCCC2)cc1)C(=O)O | inconclusive: 31.6 µM [cytotoxic, partial curve, poor fit] | 
3 | O=C(NOCC1CC1)c1cc(Br)c(F)c(F)c1Nc1ccc(I)cc1Cl | inconclusive: 6.31 µM [cytotoxic, full curve, poor fit] | 
4 | Cc1ccc2[nH]c(=O)c(C3=NN(C(=O)CCC(=O)O)C(c4ccc(Br)cc4)C3)c(-c3ccccc3)c2c1 (stereo not given) | inactive | 
5 | N#Cc1ccc(N2N=C3c4ccc(C(=O)O)cc4CC[C@@H]3[C@@H]2C2CCCC2)cc1Cl | inconclusive: 31.6 µM [cytotoxic, single point] | 
6 | O=C(O)/C=C/c1ccc(-c2ccc(O)c(C34CC5CC(CC(C5)C3)C4)c2)cc1 |  | inconclusive: -56.3% [at 31.5 µM]
7 | CC(C)=CCc1c2c(c3occ(-c4ccc(O)c(O)c4)c(=O)c3c1O)C=CC(C)(C)O2 | active: 8.91 µM | 
8 | COc1cc(C(=O)O)ccc1NC(=O)[C@@H]1N[C@@H](CC(C)(C)C)[C@](C#N)(c2ccc(Cl)cc2F)[C@H]1c1cccc(Cl)c1F | inconclusive: 35.5 µM [cytotoxic, single point] | 
9 | Cc1cc2c(C(C)C)c(O)c(O)c(C=O)c2c(O)c1-c1c(C)cc2c(C(C)C)c(O)c(O)c(C=O)c2c1O | inconclusive: 11.2 µM [cytotoxic, full curve] | 
10 | CC[C@H](C)[C@H]1O[C@]2(CC[C@@H]1C)C[C@@H]1C[C@@H](C/C=C(\C)[C@@H](O[C@H]3C[C@H](OC)[C@@H](O[C@H]4C[C@H](OC)[C@@H](O)[C@H](C)O4)[C@H](C)O3)[C@@H](C)/C=C/C=C3\CO[C@@H]4[C@H](O)C(C)=C[C@@H](C(=O)O1)[C@]34O)O2 | active: 11.2 µM | 
11 | CN(C)CC[C@H](CSc1ccccc1)Nc1ccc(S(=O)(=O)NC(=O)c2ccc(N3CCN(Cc4ccccc4-c4ccc(Cl)cc4)CC3)cc2)cc1[N+](=O)[O-] | inconclusive: 5.01 µM [cytotoxic, full curve] | 
12 | CC1CCN(C(c2ccc(F)cc2)c2ccc(C(C)C(=O)O)cc2-c2ccc(C(F)(F)F)cc2)CC1 (stereo not given) | inconclusive: 10 µM [cytotoxic, full curve] | 
13 | CNC(=O)c1cc(Oc2ccc(NC(=O)Nc3ccc(Cl)c(C(F)(F)F)c3)cc2)ccn1 | inconclusive: 28.2 µM [cytotoxic, single point] | 
14 | COc1ccc(Cl)c(Nc2nc3ccccc3nc2NS(=O)(=O)c2cccc(NC(=O)C(C)(C)N)c2)c1 | inconclusive: 11.2 µM [cytotoxic, full curve, poor fit] | 
15 | CCOC(=O)c1ccc(NC(=O)CSc2nc(-c3ccc(F)cc3)cc(C(F)(F)F)c2C#N)cc1 | inconclusive: 7.94 µM [cytotoxic, full curve] | 
16 | C[C@@]12O[C@@H](C[C@]1(O)CO)n1c3ccccc3c3c4c(c5c6ccccc6n2c5c31)CNC4=O | inconclusive: 15.8 µM [cytotoxic, partial curve] | 
17 | CC(=O)O[C@@H]1C[C@]2(C)[C@@]3(CCC4[C@@]5(C)CC[C@H](O[C@@H]6O[C@H](C(=O)O)[C@@H](O)[C@H](O[C@@H]7O[C@H](CO)[C@H](O)[C@H](O)[C@H]7O[C@@H]7O[C@@H](C)[C@H](O)[C@@H](O)[C@H]7O[C@@H]7OC[C@](O)(CO)[C@H]7O)[C@H]6O[C@@H]6O[C@H](CO)[C@H](O)[C@H](O)[C@H]6O)C(C)(C)C5CC[C@]42C)O[C@@H](O)[C@]12C3CC(C)(C)[C@@H](OC(=O)/C=C/c1ccc(O)c(O)c1)[C@@H]2OC(=O)/C=C/c1ccccc1 (stereo not given in full) |  | inactive: 2.61% [at 7.93 µM]
18 | CCOC(=O)c1ccc(N2C(=O)c3n[nH]c(-c4cccs4)c3C2c2ccc(Cl)cc2Cl)cc1 (stereo not given) | active: 25.1 µM | 
19 | CC(=O)Nc1ccc([C@H](C)C(=O)Nc2ncc(C(C)C)s2)cc1 | active: 2.82 µM | 
20 | C=C1c2cccc(O)c2C(O)=C2C(=O)[C@]3(O)C(O)=C(C(N)=O)C(=O)[C@@H](N(C)C)[C@@H]3[C@@H](O)[C@H]12 | inactive | 

Exported as labelled records: entries from further up
O=C(O)/C=C/c1ccc(-c2ccc(O)c(C34CC5CC(CC(C5)C3)C4)c2)cc1
  activity change, negative = cytotoxicity: inconclusive: -56.3% [at 31.5 µM]
COc1cc(C(=O)O)ccc1NC(=O)[C@@H]1N[C@@H](CC(C)(C)C)[C@](C#N)(c2ccc(Cl)cc2F)[C@H]1c1cccc(Cl)c1F
  Potency: inconclusive: 35.5 µM [cytotoxic, single point]

More structures.

Row | Compound | Potency | activity change, negative = cytotoxicity
21 | CCOc1nc2cccc(C(=O)OC(C)OC(=O)OC3CCCCC3)c2n1Cc1ccc(-c2ccccc2-c2nn[nH]n2)cc1 (stereo not given) | inconclusive: 14.1 µM [cytotoxic, partial curve] | 
22 | CN(Cc1ccc(C(=O)O)cc1)c1ccc(OCc2c(-c3c(Cl)cccc3Cl)noc2C2CC2)nc1C(F)(F)F | inactive | 
23 | CC(C)=CCCC1(C)C=Cc2c(O)c3c(c(CC=C(C)C)c2O1)OC12C(=CCCC1C(C)(C)O[C@@]2(C/C=C(\C)C(=O)O)C(=O)O)C3=O (stereo not given in full) | inactive | 
24 | CC[C@@H](C(=O)[C@H](C)[C@@H](O)[C@H](C)CCc1ccc(C)c(O)c1C(=O)O)C1O[C@@](CC)(C2CC[C@](O)(CC)[C@H](C)O2)C[C@@H]1C (stereo not given in full) | inconclusive: 31.6 µM [cytotoxic, single point] | 
25 | Cc1ccn(-c2ccc(-c3ncco3)cc2)c(=O)c1-c1ccc2nc(N)ncc2c1 | inactive | 
26 | O=S(=O)(Nc1cc(Cl)c(Oc2cnc3ccccc3c2)c(Cl)c1)c1ccc(Cl)cc1Cl | inconclusive: 10 µM [cytotoxic, partial curve, poor fit] | 
27 | Nc1ncnc2c([C@@H]3N[C@H](CO)[C@@H](O)[C@H]3O)c[nH]c12 | inconclusive: 15.8 µM [rising, partial curve, poor fit] | 
28 | C=C(c1ccc(C(=O)O)cc1)c1cc2c(cc1C)C(C)(C)CCC2(C)C | inconclusive: 31.6 µM [cytotoxic, single point] | 
29 | Oc1c(Cl)cc(Cl)c(Cl)c1Cc1c(O)c(Cl)cc(Cl)c1Cl | active: 35.5 µM | 
30 | CC(C)c1onc(-c2c(Cl)cccc2Cl)c1COc1ccc(/C=C/c2cccc(C(=O)O)c2)c(Cl)c1 | inconclusive: 17.8 µM [cytotoxic, partial curve, poor fit] | 
31 | CCOc1ccc(-c2ccc(Cn3c(CC(C)(C)C(=O)O)c(SC(C)(C)C)c4cc(OCc5ccc(C)cn5)ccc43)cc2)cn1 | inconclusive: 3.98 µM [cytotoxic, full curve] | 
32 | CC(C)c1cccc2c(-c3ccccc3)cc(-c3ccc(-c4ccc(C(=O)O)cc4)[nH]3)nc12 | active: 25.1 µM | 
33 | Nc1ccn([C@@H]2O[C@H](CO)[C@@H](O)C2(F)F)c(=O)n1 |  | inconclusive: -44.8%
34 | O=C1NC(=O)/C(=C/c2ccc3c(c2)OC(F)(F)O3)S1 | inconclusive: 25.1 µM [cytotoxic, partial curve, poor fit] | 
35 | CC1=C(C(=O)OCc2ccccc2)C(c2ccc(-c3ccccc3)cc2)NC(=O)N1CCCCCC(=O)O (stereo not given) | inconclusive: 8.91 µM [cytotoxic, full curve, poor fit] | 
36 | Oc1cccc(-c2c3nc(c(-c4cccc(O)c4)c4ccc([nH]4)c(-c4cccc(O)c4)c4nc(c(-c5cccc(O)c5)c5ccc2[nH]5)CC4)C=C3)c1 | inactive | 
37 | N#CC1(c2cccc(C(=O)Nc3cc(Oc4ccc5nc(NC(=O)C6CC6)sc5n4)ccc3F)c2Cl)CC1 | inactive | 
38 | COc1cc(O)c2c(=O)cc(-c3ccc(OC)c(-c4c(O)cc(O)c5c(=O)cc(-c6ccc(O)cc6)oc45)c3)oc2c1 | inconclusive: 11.2 µM [cytotoxic, full curve, poor fit] | 
39 | CC(C)c1ccc2c(c1)c(SC(C)(C)C)c(CC(C)(C)C(=O)O)n2Cc1ccc(Cl)cc1 | active: 15.8 µM | 
40 | Oc1cc2ccccc2c2ccccc12 | active: 11.2 µM | 
